The values below come from paper PMC9237525, “Solution Structure of Tubuliform Spidroin N-Terminal Domain and Implications for pH Dependent Dimerization” (Frontiers in Molecular Biosciences, 2022).

For the assay, the target named is Argiope argentata tubuliform spidroin (TuSp 1) N-terminal domain, wild type (Argiope argentata). In words: condition: only at pH 8 with 300 mM NaCl (3 mg/ml loaded); SEC; Superdex 75 Increase 10/300 GL, 50 µl at 3 mg/ml, 20 mM Tris-HCl, 300 mM NaCl, pH 8.0; both purified.

These are yes or no findings as the source states them, for the method shown.

B1: Argiope argentata tubuliform spidroin (TuSp 1) N-terminal domain, wild type (domain or fragment)
chain: AVTAVPSVFSSPNLASGFLQCLTFGIGNSPAFPTQEQQDLDAIAQVILNAVSTNTGATASARAQALSTALASSLTDLLIAESAESNYNNQLSELTGILSNCFIQTTGSDNPAFVSRIQSLISVLSQNTDVNIISTA
notes: Tubuliform spidroin 1 (TuSp 1) N-terminal domain, Argiope argentata; 136 residues (count printed for the A70E variant); Expressed from pET-32a-HisTrxHisNT; Intramolecular disulfide C22-C102; 15N- or 13C,15N-labelled for NMR; Calculated mass 14.1 kDa (monomer); also called TuSp NT; wt TuSp NT; not shown: His-Trx, N-terminal, cleaved
For B1, the binding entry was “no binding”.
